# Test results as given in article PMC5996148.
# “And” between values parts separate entries of the source, which are not always exact repeats. Identical values can stand only once. This is one part of the list.
# Legend:
# Experiment in all cases: protein microarray (ProtoArray v5.0), streptavidin-Alexa Fluor 647
# Conditions in all cases: 3'-biotin; 20 mM Tris (pH 7.5), 5 mM MgCl2, 100 mM KCl, 0.1% Tween-20, A/T-rich and random oligonucleotide blockers; temperature not stated; high values mean tight binding
# [1] = system: UBE2T (human)
# [2] = system: UBE2Z (human)
# [3] = system: UBE3C (human)
# [4] = system: UBQLN1 (human)
# [5] = system: UBQLN2 (human)
# [6] = system: UBTD2 (human)
# [7] = system: UBX domain-containing protein 7 (human)
# [8] = system: UCHL1 (human)
# [9] = system: UCHL3 (human)
# [10] = system: UCHL5 (human)
sequence,measurement,setting,value
GGGGACAGGGGTATGGGGAGGGG [G4-3 biotinylated (CtG)],binding signal,[1],-0.324 z-score
same,binding signal,[2],-0.315 z-score
same,binding signal,[3],-0.316 z-score
same,binding signal,[4],-0.331 z-score
same,binding signal,[5],-0.33 z-score
same,binding signal,[6],-0.327 z-score
same,binding signal,[7],-0.345 z-score
same,binding signal,[8],-0.337 z-score
same,binding signal,[9],-0.333 z-score
same,binding signal,[10],-0.331 z-score and -0.338 z-score
